# Assay results taken from the supplement of paper PMC4635364.
# Counter-ions that a name gives are not always drawn. The list shows a part of the results. Repeats in this data set agree poorly, so a single value says little.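 ReNCell VM, a human fetal ventral-midbrain neural progenitor line, was differentiated without mitogens. Blinded raters scored images stained for doublecortin (early neurons) or tyrosine hydroxylase (dopaminergic neurons) against untreated wells (0 = no change). Scores were averaged across repeats and both raters, and compounds averaging 2 or more were selected as hits for retesting.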 *1 amine or outer side, *2 acyl side, *3 side chain or, on linkers, in order; H or OH if unused. Where a SMILES comes first, the peptide text is derived from it. Bridges are numbered along the chain shown (N, C = ends). [ ]: non-standard residue; d: D form. The star is where a group is joined. X1 = NC1=N[C@@H]([C@H](N[*:1])C(=O)[*:2])C[C@H](O)N1; ΔAla(Z-3-ureido) = NC(=O)N/C=C(\N)C(=O)O; β3hOrn = NCCC[C@H](N)CC(=O)*; Dap = NC[C@H](N)C(=O)O
# Tests used:
# ReNCell VM [1] = test: neuronal differentiation score (DCX+ cell fraction vs untreated, manual image score) (score (-3 to 3)); higher = more neuronal differentiation; conditions: 2 uM, 2 weeks
# ReNCell VM [2] = test: dopaminergic neuron differentiation score (TH+ cell fraction vs untreated, manual image score) (score (0 to 3)); higher = more TH+ dopaminergic neuron differentiation; conditions: 2 uM, 4 weeks, BDNF 10 ng/ml + GDNF 10 ng/ml
smiles,measurement,setting,value
CCCCCCCCCCCCCCC[C@H](O)[C@H](N)CO (racemic) [DL-erythro-Dihydrosphingosine],neuronal differentiation score,ReNCell VM [1]; library: LOPAC,inactive: -1
same,dopaminergic neuron differentiation score,ReNCell VM [2]; library: LOPAC,inactive: 0
C[C@@H]1CC[C@@]2(OC1)O[C@H]1C[C@H]3[C@@H]4CC[C@H]5C[C@@H](O)CC[C@]5(C)[C@H]4CC[C@]3(C)[C@H]1[C@@H]2C,neuronal differentiation score,ReNCell VM [1]; library: Spectrum,inactive: 0
same,dopaminergic neuron differentiation score,ReNCell VM [2]; library: Spectrum,inactive: 0
CN1C(=O)CC(c2ccccc2)C1=O (stereo not drawn),neuronal differentiation score,ReNCell VM [1]; library: Spectrum,inactive: 1
same,dopaminergic neuron differentiation score,ReNCell VM [2]; library: Spectrum,inactive: 0
COc1ccc(C(Cl)=C(c2ccc(OC)cc2)c2ccc(OC)cc2)cc1 [Chlorotrianisene],neuronal differentiation score,ReNCell VM [1]; library: Prestwick,inactive: 0
same,dopaminergic neuron differentiation score,ReNCell VM [2]; library: Prestwick,inactive: 0
CCCCCC[C@@H]([C@@H](C)O)n1cnc2c(N)ncnc21 [erythro-9-(2-Hydroxy-3-nonyl)adenine hydrochloride],neuronal differentiation score,ReNCell VM [1]; library: LOPAC,inactive: 0
same,dopaminergic neuron differentiation score,ReNCell VM [2]; library: LOPAC,inactive: 0
CC(=O)Oc1cc(C(C)C)c(OCCN(C)C)cc1C [Moxisylyte hydrochloride],neuronal differentiation score,ReNCell VM [1]; library: LOPAC,inactive: 0
same,dopaminergic neuron differentiation score,ReNCell VM [2]; library: LOPAC,inactive: 0
C=CCc1cccc(/C=N/NC(=O)CN2CCN(Cc3ccccc3)CC2)c1O,neuronal differentiation score,ReNCell VM [1]; library: Tocriscreen,inactive: 0
same,dopaminergic neuron differentiation score,ReNCell VM [2]; library: Tocriscreen,inactive: 0
CC(C)[C@H]1c2ccc(F)cc2CC[C@@]1(CCN(C)CCCc1nc2ccccc2[nH]1)OC(=O)C1CC1,neuronal differentiation score,ReNCell VM [1]; library: LOPAC,inactive: 0
same,dopaminergic neuron differentiation score,ReNCell VM [2]; library: LOPAC,inactive: 0
Oc1cc(O)c2c(c1)O[C@H](c1cc(O)c(O)c(O)c1)[C@H](O)C2,neuronal differentiation score,ReNCell VM [1]; library: Spectrum,inactive: 0
same,dopaminergic neuron differentiation score,ReNCell VM [2]; library: Spectrum,inactive: 0
N=C(N)c1ccc(N=NNc2ccc(C(=N)N)cc2)cc1,neuronal differentiation score,ReNCell VM [1]; library: Spectrum,inactive: 0
same,dopaminergic neuron differentiation score,ReNCell VM [2]; library: Spectrum,inactive: 0
NCCC[C@H](N)CC(=O)N[C@H]1CNC(=O)[C@H]([C@H]2C[C@H](O)NC(N)=N2)NC(=O)/C(=C/NC(N)=O)NC(=O)[C@H](CO)NC(=O)[C@H](CO)NC1=O (β3hOrn-[Dap]SS[ΔAla(Z-3-ureido)][X1]; lactam 1-C),neuronal differentiation score,ReNCell VM [1]; library: Spectrum,inactive: 0
same,dopaminergic neuron differentiation score,ReNCell VM [2]; library: Spectrum,inactive: 0
CCOC(=O)C1=C(COCCN)NC(C)=C(C(=O)OC)C1c1ccccc1Cl (stereo not drawn) [Amlodipine besylate],neuronal differentiation score,ReNCell VM [1]; library: Tocriscreen,inactive: 0
same,dopaminergic neuron differentiation score,ReNCell VM [2]; library: Tocriscreen,inactive: 0
O=c1cc(O)cc(/C=C/c2ccc(O)c(O)c2)o1 [Hispidin],neuronal differentiation score,ReNCell VM [1]; library: LOPAC,inactive: 0
same,dopaminergic neuron differentiation score,ReNCell VM [2]; library: LOPAC,inactive: 0
C[C@@H]1O[C@@H](O[C@H]2[C@H](Oc3cc(O)c4c(=O)cc(-c5ccc(O)cc5)oc4c3)O[C@H](CO)[C@@H](O)[C@@H]2O)[C@H](O)[C@H](O)[C@H]1O,neuronal differentiation score,ReNCell VM [1]; library: Spectrum,inactive: 0
same,dopaminergic neuron differentiation score,ReNCell VM [2]; library: Spectrum,inactive: 0
CC[N+](CC)(CC(=O)Nc1c(C)cccc1C)Cc1ccccc1,neuronal differentiation score,ReNCell VM [1]; library: Spectrum,inactive: 0
same,dopaminergic neuron differentiation score,ReNCell VM [2]; library: Spectrum,inactive: 0
CO/N=C(\C(=O)N[C@@H]1C(=O)N2C(C(=O)O)=C(COC(N)=O)CS[C@H]12)c1ccco1,neuronal differentiation score,ReNCell VM [1]; library: Spectrum,active: 3
same,dopaminergic neuron differentiation score,ReNCell VM [2]; library: Spectrum,inactive: 0
COc1ccc2cc3[n+](cc2c1OC)CCc1cc2c(cc1-3)OCO2 [Berberine chloride],neuronal differentiation score,ReNCell VM [1]; library: Phytochemical,inactive: 0
same,dopaminergic neuron differentiation score,ReNCell VM [2]; library: Phytochemical,inactive: 0
CC(C)=CCC/C(C)=C/CC/C(C)=C/CC/C(C)=C/CC/C(C)=C/CC/C(C)=C/CC/C(C)=C/CC/C(C)=C/CC/C(C)=C/CO,neuronal differentiation score,ReNCell VM [1]; library: Spectrum,inactive: 0
same,dopaminergic neuron differentiation score,ReNCell VM [2]; library: Spectrum,inactive: 0
COc1ccc(C(=O)OC2CC3CCC(C2)N3C(C)=O)cc1OC (stereo not drawn) [convolicine],neuronal differentiation score,ReNCell VM [1]; library: Natural,inactive: 0
same,dopaminergic neuron differentiation score,ReNCell VM [2]; library: Natural,inactive: 0
COc1ccc(-c2cc(=O)c3c(O)cc(O[C@@H]4O[C@H](CO[C@@H]5O[C@@H](C)[C@H](O)[C@@H](O)[C@H]5O)[C@@H](O)[C@H](O)[C@H]4O)cc3o2)cc1O,neuronal differentiation score,ReNCell VM [1]; library: Spectrum,inactive: 0
same,dopaminergic neuron differentiation score,ReNCell VM [2]; library: Spectrum,inactive: 0
"COC(=O)/C=C/c1cc(O)ccc1O [Methyl 2,5-dihydroxycinnamate]",neuronal differentiation score,ReNCell VM [1]; library: Tocriscreen,inactive: 0
same,dopaminergic neuron differentiation score,ReNCell VM [2]; library: Tocriscreen,inactive: 0
COc1ccc2c(c1)c(CC(=O)O)c(C)n2C(=O)c1ccc(Cl)cc1,neuronal differentiation score,ReNCell VM [1]; library: Spectrum,inactive: 0
same,dopaminergic neuron differentiation score,ReNCell VM [2]; library: Spectrum,inactive: 0
CN1CCN(C(c2ccccc2)c2ccc(Cl)cc2)CC1 (stereo not drawn),neuronal differentiation score,ReNCell VM [1]; library: Spectrum,inactive: 0
same,dopaminergic neuron differentiation score,ReNCell VM [2]; library: Spectrum,inactive: 0
COc1ccc2c(c1)OC1(O)COc3cc(OC)c(OC)cc3C1=C2 (stereo not drawn),neuronal differentiation score,ReNCell VM [1]; library: Spectrum,inactive: 0
same,dopaminergic neuron differentiation score,ReNCell VM [2]; library: Spectrum,inactive: 0

# Reprinted at random: two records from the list
smiles,measurement,setting,value
C[C@@H]1O[C@@H](O[C@H]2[C@H](Oc3cc(O)c4c(=O)cc(-c5ccc(O)cc5)oc4c3)O[C@H](CO)[C@@H](O)[C@@H]2O)[C@H](O)[C@H](O)[C@H]1O,dopaminergic neuron differentiation score,ReNCell VM [2]; library: Spectrum,inactive: 0
COc1ccc2cc3[n+](cc2c1OC)CCc1cc2c(cc1-3)OCO2 [Berberine chloride],neuronal differentiation score,ReNCell VM [1]; library: Phytochemical,inactive: 0
